From patent US20190142974A1, “METHODS AND COMPOSITIONS FOR ATTENUATING ANTI-VIRAL TRANSFER VECTOR IGM RESPONSES” (Selecta Biosciences, Inc., priority 2017, published 2019)
At least one compound was matched to its structure with a doubt left.

Tests used:
[1] = test system: AAV; test: Serum IgM antibodies to AAV, ELISA (top OD); type: in vivo, C57BL/6 female mice; conditions: Example 12, FIG. 24A; AAV8-SEAP d0, 51, 105; SVP[Rapa] 100 μg; ibrutinib i.p. 500 μg daily for 17 days
[2] = test system: SEAP; test: Serum SEAP levels (AAV-driven transgene expression), chemiluminescence kit; type: in vivo, C57BL/6 female mice; conditions: Example 13, FIG. 25

C=CC(=O)N1CCC[C@@H](n2nc(-c3ccc(Oc4ccccc4)cc3)c3c(N)ncnc32)C1 [ibrutinib]
AAV IgM response [1]: completely inefficient in IgM suppression
boost in SEAP expression at subsequent AAV administration (d51 and 105) [2]: no boost
initial transgene (SEAP) expression [2]: no effect vs. untreated mice
